# According to the supplement of paper PMC8728848:
# Some of the results follow.
# B1: HFR-3 (Triticum aestivum) (protein)
# chain: MKGLLLCALALAFAAVTTHAQLQSCPTRCGKQADGMECPNNLCCSKDGYCGLGVDYCSAGAGCQSGACYDNKICGAQANGTLCRNNHCCSSGGRCGYGREYCSNGCQGGPCWADLKCGHLDNGKLCPNNLCCSQYGYCGLGPEFCGTGCQNGACSTDKPCGNKANGAPCTNNYCCSQYGSCGLGKDYCGTGCQNGACN
# Tests used:
# Test in all cases: glycan array binding signal (z-score within array); higher = stronger binding
# Conditions in all cases: glycan notation: IUPAC condensed, linker removed
# [1] = molecular target: Fuc(a1-2)Gal(b1-4)GlcNAc(b1-3)Gal(b1-4)GlcNAc(b1-3)Gal(b1-4)GlcNAc
# How it was run: (§1)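 Glycan array data were curated from 3228 arrays in the Consortium for Functional Glycomics database and kept only where the protein sequence was available. Glycan names were converted to IUPAC-condensed notation, and columns mapping to the same glycan were averaged. The binding signal is a within-array Z-score, averaged across arrays of the same protein sequence at different concentrations or buffers and across linkers. Negative Z-scores can be read as non-binding.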
# [2] = molecular target: Fuc(a1-2)Gal(b1-4)GlcNAc(b1-3)GalNAc
# How it was run: as §1
# [3] = molecular target: Fuc(a1-2)Gal(b1-4)GlcNAc(b1-3)[Fuc(a1-2)Gal(b1-4)GlcNAc(b1-6)]GalNAc
# How it was run: as §1
# [4] = molecular target: Fuc(a1-2)Gal(b1-4)GlcNAc(b1-3)[Fuc(a1-3)[Gal(b1-4)]GlcNAc(b1-6)]Gal(b1-4)Glc
# How it was run: as §1
# [5] = molecular target: Fuc(a1-2)Gal(b1-4)GlcNAc(b1-6)GalNAc
# How it was run: as §1
# [6] = molecular target: Fuc(a1-2)Gal(b1-4)GlcNAc6S
# How it was run: as §1
# [7] = molecular target: Fuc(a1-2)Gal(b1-4)[Fuc(a1-3)]GlcNAc
# How it was run: as §1
# [8] = molecular target: Fuc(a1-2)Gal(b1-4)[Fuc(a1-3)]GlcNAc(b1-2)Man(a1-3)[Fuc(a1-2)Gal(b1-4)[Fuc(a1-3)]GlcNAc(b1-2)Man(a1-6)]Man(b1-4)GlcNAc(b1-4)[Fuc(a1-6)]GlcNAc
# How it was run: as §1
# [9] = molecular target: Fuc(a1-2)Gal(b1-4)[Fuc(a1-3)]GlcNAc(b1-2)[Fuc(a1-2)Gal(b1-4)[Fuc(a1-3)]GlcNAc(b1-4)]Man(a1-3)[Fuc(a1-2)Gal(b1-4)[Fuc(a1-3)]GlcNAc(b1-2)Man(a1-6)]Man(b1-4)GlcNAc(b1-4)GlcNAc
# How it was run: as §1
# [10] = molecular target: Fuc(a1-2)Gal(b1-4)[Fuc(a1-3)]GlcNAc(b1-3)Gal(b1-4)[Fuc(a1-3)]GlcNAc
# How it was run: as §1
# [11] = molecular target: Fuc(a1-2)Gal(b1-4)[Fuc(a1-3)]GlcNAc(b1-3)Gal(b1-4)[Fuc(a1-3)]GlcNAc(b1-3)Gal(b1-4)[Fuc(a1-3)]GlcNAc
# How it was run: as §1
# [12] = molecular target: Fuc(a1-2)Gal(b1-4)[Fuc(a1-3)]GlcNAc(b1-3)GalNAc
# How it was run: as §1
# [13] = molecular target: Fuc(a1-2)Gal(b1-4)[Fuc(a1-3)]GlcNAc(b1-3)[Neu5Ac(a2-6)Gal(b1-4)GlcNAc(b1-6)]Gal(b1-4)Glc
# How it was run: as §1
# [14] = molecular target: Fuc(a1-2)Gal3S(b1-4)GlcNAc
# How it was run: as §1
# [15] = molecular target: Fuc(a1-2)Gal6S(b1-3)GlcNAc
# How it was run: as §1
# [16] = molecular target: Fuc(a1-2)Gal6S(b1-3)GlcNAc6S
# How it was run: as §1
# Fuc(a1-2)Gal6S(b1-4)Glc = molecular target: Fuc(a1-2)Gal6S(b1-4)Glc
# How it was run: as §1
# [17] = molecular target: Fuc(a1-2)Gal6S(b1-4)Glc6S
# How it was run: as §1
# Fuc(a1-2)[Gal(a1-3)]Gal = molecular target: Fuc(a1-2)[Gal(a1-3)]Gal
# How it was run: as §1
# [18] = molecular target: Fuc(a1-2)[Gal(a1-3)]Gal(b1-3)GalNAc
# How it was run: as §1
# [19] = molecular target: Fuc(a1-2)[Gal(a1-3)]Gal(b1-3)GalNAc(b1-3)Gal(a1-4)Gal(b1-4)Glc
# How it was run: as §1
# [20] = molecular target: Fuc(a1-2)[Gal(a1-3)]Gal(b1-3)GlcNAc
# How it was run: as §1
# [21] = molecular target: Fuc(a1-2)[Gal(a1-3)]Gal(b1-3)GlcNAc(b1-2)Man(a1-3)[Fuc(a1-2)[Gal(a1-3)]Gal(b1-3)GlcNAc(b1-2)Man(a1-6)]Man(b1-4)GlcNAc(b1-4)GlcNAc
# How it was run: as §1
# [22] = molecular target: Fuc(a1-2)[Gal(a1-3)]Gal(b1-3)GlcNAc(b1-2)Man(a1-3)[Fuc(a1-2)[Gal(a1-3)]Gal(b1-3)GlcNAc(b1-2)Man(a1-6)]Man(b1-4)GlcNAc(b1-4)[Fuc(a1-6)]GlcNAc
# How it was run: as §1
# [23] = molecular target: Fuc(a1-2)[Gal(a1-3)]Gal(b1-3)GlcNAc(b1-3)GalNAc
# How it was run: as §1
# [24] = molecular target: Fuc(a1-2)[Gal(a1-3)]Gal(b1-3)GlcNAc(b1-6)GalNAc
# How it was run: as §1
# [25] = molecular target: Fuc(a1-2)[Gal(a1-3)]Gal(b1-4)Glc
# How it was run: as §1
# [26] = molecular target: Fuc(a1-2)[Gal(a1-3)]Gal(b1-4)GlcNAc
# How it was run: as §1
# [27] = molecular target: Fuc(a1-2)[Gal(a1-3)]Gal(b1-4)GlcNAc(b1-2)Man
# How it was run: as §1
# [28] = molecular target: Fuc(a1-2)[Gal(a1-3)]Gal(b1-4)GlcNAc(b1-2)Man(a1-3)[Fuc(a1-2)[Gal(a1-3)]Gal(b1-4)GlcNAc(b1-2)Man(a1-6)]Man(b1-4)GlcNAc(b1-4)GlcNAc
# How it was run: as §1
binder,measurement,setting,value
B1,glycan array binding signal (z-score),[1],-1.6
same,glycan array binding signal (z-score),[2],0.481
same,glycan array binding signal (z-score),[3],1.31
same,glycan array binding signal (z-score),[4],-1.08
same,glycan array binding signal (z-score),[5],0.475
same,glycan array binding signal (z-score),[6],0.021
same,glycan array binding signal (z-score),[7],0.738
same,glycan array binding signal (z-score),[8],1.56
same,glycan array binding signal (z-score),[9],0.772
same,glycan array binding signal (z-score),[10],-1
same,glycan array binding signal (z-score),[11],0.775
same,glycan array binding signal (z-score),[12],-1.14
same,glycan array binding signal (z-score),[13],-0.54
same,glycan array binding signal (z-score),[14],-0.083
same,glycan array binding signal (z-score),[15],-0.314
same,glycan array binding signal (z-score),[16],-0.575
same,glycan array binding signal (z-score),Fuc(a1-2)Gal6S(b1-4)Glc,-0.893
same,glycan array binding signal (z-score),[17],-0.695
same,glycan array binding signal (z-score),Fuc(a1-2)[Gal(a1-3)]Gal,0.031
same,glycan array binding signal (z-score),[18],-0.263
same,glycan array binding signal (z-score),[19],-1.19
same,glycan array binding signal (z-score),[20],0.236
same,glycan array binding signal (z-score),[21],0.149
same,glycan array binding signal (z-score),[22],-0.984
same,glycan array binding signal (z-score),[23],-0.604
same,glycan array binding signal (z-score),[24],-0.039
same,glycan array binding signal (z-score),[25],0.055
same,glycan array binding signal (z-score),[26],0.097
same,glycan array binding signal (z-score),[27],0.323
same,glycan array binding signal (z-score),[28],1.04

# Reformatted: results already given.
binder	measurement	setting	value
B1	glycan array binding signal (z-score)	[3]	1.31
same	glycan array binding signal (z-score)	[6]	0.021
same	glycan array binding signal (z-score)	[7]	0.738
same	glycan array binding signal (z-score)	[8]	1.56
same	glycan array binding signal (z-score)	[11]	0.775
same	glycan array binding signal (z-score)	[14]	-0.083
same	glycan array binding signal (z-score)	Fuc(a1-2)[Gal(a1-3)]Gal	0.031
